Experimental findings from PMC8599447 are described below.

Assay [1] concerns the target T1, GST-SREBP2N fusion protein (1-485aa of SREBP2) (UniProt Q12772).
T1 sequence: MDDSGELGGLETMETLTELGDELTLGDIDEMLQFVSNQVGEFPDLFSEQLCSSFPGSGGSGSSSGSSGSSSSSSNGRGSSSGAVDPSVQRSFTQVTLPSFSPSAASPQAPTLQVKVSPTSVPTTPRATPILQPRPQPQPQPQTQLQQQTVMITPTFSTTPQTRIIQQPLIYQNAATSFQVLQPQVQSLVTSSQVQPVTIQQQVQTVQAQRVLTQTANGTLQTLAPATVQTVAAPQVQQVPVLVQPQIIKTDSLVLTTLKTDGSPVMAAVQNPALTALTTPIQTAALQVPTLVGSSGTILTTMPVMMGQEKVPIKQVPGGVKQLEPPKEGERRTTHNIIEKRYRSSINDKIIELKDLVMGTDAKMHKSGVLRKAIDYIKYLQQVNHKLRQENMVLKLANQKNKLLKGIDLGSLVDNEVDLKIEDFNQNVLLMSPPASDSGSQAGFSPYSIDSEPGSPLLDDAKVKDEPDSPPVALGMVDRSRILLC
In words: pull-down; RIPA cell lysate mixed with 10 ug GST-SREBP2N fusion protein overnight at 4°C, Sepharose 4B beads 4 hours, washed with RIPA buffer, western blot; only the target purified. In general terms: In western blotting, separated proteins are transferred to a membrane and probed.

Assay [2] concerns the target T2, Flag-TFCP2 (transcription factor CP2) (UniProt Q12800).
T2 sequence: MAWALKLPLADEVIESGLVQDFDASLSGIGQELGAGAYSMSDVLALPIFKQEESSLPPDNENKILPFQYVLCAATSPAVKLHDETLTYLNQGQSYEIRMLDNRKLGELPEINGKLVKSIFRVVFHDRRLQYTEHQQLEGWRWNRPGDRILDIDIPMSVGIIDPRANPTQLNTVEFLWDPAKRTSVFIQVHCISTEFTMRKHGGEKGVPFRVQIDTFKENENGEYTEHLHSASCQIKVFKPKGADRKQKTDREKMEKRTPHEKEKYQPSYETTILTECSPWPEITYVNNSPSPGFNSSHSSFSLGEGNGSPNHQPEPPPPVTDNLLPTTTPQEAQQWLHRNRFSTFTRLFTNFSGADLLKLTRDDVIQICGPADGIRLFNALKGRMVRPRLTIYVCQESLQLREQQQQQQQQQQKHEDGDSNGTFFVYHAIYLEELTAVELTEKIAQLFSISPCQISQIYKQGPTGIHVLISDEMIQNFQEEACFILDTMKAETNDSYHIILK
In words: co-IP; cells transfected with Flag-TFCP2 and HA-SREBP2(N) plasmids, 48 hours; RIPA lysate, primary antibody overnight at 4°C, Protein A/G agarose beads, western blot.

Results are given in words; binding and its absence hold for the method and conditions named. Binding seen in cells or lysates may run through a third protein. Some entries that bind do so weakly or less than the wild type. Tags and fused reporters may be left off the sequences shown.

B1: TFCP2, endogenously expressed (protein, UniProt Q12800 1-502)
chain: MAWALKLPLADEVIESGLVQDFDASLSGIGQELGAGAYSMSDVLALPIFKQEESSLPPDNENKILPFQYVLCAATSPAVKLHDETLTYLNQGQSYEIRMLDNRKLGELPEINGKLVKSIFRVVFHDRRLQYTEHQQLEGWRWNRPGDRILDIDIPMSVGIIDPRANPTQLNTVEFLWDPAKRTSVFIQVHCISTEFTMRKHGGEKGVPFRVQIDTFKENENGEYTEHLHSASCQIKVFKPKGADRKQKTDREKMEKRTPHEKEKYQPSYETTILTECSPWPEITYVNNSPSPGFNSSHSSFSLGEGNGSPNHQPEPPPPVTDNLLPTTTPQEAQQWLHRNRFSTFTRLFTNFSGADLLKLTRDDVIQICGPADGIRLFNALKGRMVRPRLTIYVCQESLQLREQQQQQQQQQQKHEDGDSNGTFFVYHAIYLEELTAVELTEKIAQLFSISPCQISQIYKQGPTGIHVLISDEMIQNFQEEACFILDTMKAETNDSYHIILK
For the molecule B1, the binding entry in assay [1] is on record as “binds”.

B2: HA-SREBP2(N) (domain or fragment, UniProt Q12772 1-485)
chain: MDDSGELGGLETMETLTELGDELTLGDIDEMLQFVSNQVGEFPDLFSEQLCSSFPGSGGSGSSSGSSGSSSSSSNGRGSSSGAVDPSVQRSFTQVTLPSFSPSAASPQAPTLQVKVSPTSVPTTPRATPILQPRPQPQPQPQTQLQQQTVMITPTFSTTPQTRIIQQPLIYQNAATSFQVLQPQVQSLVTSSQVQPVTIQQQVQTVQAQRVLTQTANGTLQTLAPATVQTVAAPQVQQVPVLVQPQIIKTDSLVLTTLKTDGSPVMAAVQNPALTALTTPIQTAALQVPTLVGSSGTILTTMPVMMGQEKVPIKQVPGGVKQLEPPKEGERRTTHNIIEKRYRSSINDKIIELKDLVMGTDAKMHKSGVLRKAIDYIKYLQQVNHKLRQENMVLKLANQKNKLLKGIDLGSLVDNEVDLKIEDFNQNVLLMSPPASDSGSQAGFSPYSIDSEPGSPLLDDAKVKDEPDSPPVALGMVDRSRILLC
Regarding B2, in assay [2], the binding result was “binds”.
